Data reported in patent publication US20080248458A1 (UNIVERSITY OF NORTH CAROLINA AT CHAPEL HILL, published 2008).
Results are given in words; binding and its absence hold for the method and conditions named. In cells and extracts the contact can be indirect. Some entries that bind do so weakly or less than the wild type. For some assays here: Tags and fused reporters may be left off the sequences shown.

How the values were obtained:
GST-Bmi-1 (mouse) [1] = biological target: T1, GST-Bmi-1 (mouse) (UniProt P25916); assay: GST pull-down with 35S-labelled in vitro translated proteins (FIG. 5A)
T1 sequence (looked up): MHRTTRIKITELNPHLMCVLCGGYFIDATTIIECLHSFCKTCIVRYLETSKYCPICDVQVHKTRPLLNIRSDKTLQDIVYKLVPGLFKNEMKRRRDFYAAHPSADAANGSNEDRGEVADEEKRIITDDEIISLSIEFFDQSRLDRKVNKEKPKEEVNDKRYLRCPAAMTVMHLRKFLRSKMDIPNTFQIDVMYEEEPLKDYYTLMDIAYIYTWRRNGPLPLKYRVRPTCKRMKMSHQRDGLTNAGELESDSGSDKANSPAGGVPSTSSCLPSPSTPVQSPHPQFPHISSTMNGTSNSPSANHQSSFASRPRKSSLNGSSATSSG

GST-Bmi-1 (mouse) [2] = biological target: T1, GST-Bmi-1 (mouse); assay: GST pull-down: GST fusion on glutathione beads, 35S-labelled in vitro translated protein, fluorography (FIG. 5A)
GST-Pc3 (mouse) = biological target: T2, GST-Pc3 (mouse) (UniProt Q9QXV1); assay: as above
T2 sequence (looked up): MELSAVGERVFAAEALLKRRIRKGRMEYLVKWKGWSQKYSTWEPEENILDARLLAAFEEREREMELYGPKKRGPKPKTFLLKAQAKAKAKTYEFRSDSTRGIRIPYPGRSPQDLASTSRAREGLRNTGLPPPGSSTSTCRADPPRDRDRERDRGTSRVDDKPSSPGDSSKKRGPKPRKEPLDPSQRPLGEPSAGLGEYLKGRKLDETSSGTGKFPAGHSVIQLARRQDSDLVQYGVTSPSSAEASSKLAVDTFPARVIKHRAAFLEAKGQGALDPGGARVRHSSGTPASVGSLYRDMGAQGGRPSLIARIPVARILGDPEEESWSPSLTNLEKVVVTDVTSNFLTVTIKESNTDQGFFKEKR

GST-Ph2 (mouse) = biological target: T3, GST-Ph2 (mouse) (UniProt Q9QWH1); assay: as above
T3 sequence (looked up): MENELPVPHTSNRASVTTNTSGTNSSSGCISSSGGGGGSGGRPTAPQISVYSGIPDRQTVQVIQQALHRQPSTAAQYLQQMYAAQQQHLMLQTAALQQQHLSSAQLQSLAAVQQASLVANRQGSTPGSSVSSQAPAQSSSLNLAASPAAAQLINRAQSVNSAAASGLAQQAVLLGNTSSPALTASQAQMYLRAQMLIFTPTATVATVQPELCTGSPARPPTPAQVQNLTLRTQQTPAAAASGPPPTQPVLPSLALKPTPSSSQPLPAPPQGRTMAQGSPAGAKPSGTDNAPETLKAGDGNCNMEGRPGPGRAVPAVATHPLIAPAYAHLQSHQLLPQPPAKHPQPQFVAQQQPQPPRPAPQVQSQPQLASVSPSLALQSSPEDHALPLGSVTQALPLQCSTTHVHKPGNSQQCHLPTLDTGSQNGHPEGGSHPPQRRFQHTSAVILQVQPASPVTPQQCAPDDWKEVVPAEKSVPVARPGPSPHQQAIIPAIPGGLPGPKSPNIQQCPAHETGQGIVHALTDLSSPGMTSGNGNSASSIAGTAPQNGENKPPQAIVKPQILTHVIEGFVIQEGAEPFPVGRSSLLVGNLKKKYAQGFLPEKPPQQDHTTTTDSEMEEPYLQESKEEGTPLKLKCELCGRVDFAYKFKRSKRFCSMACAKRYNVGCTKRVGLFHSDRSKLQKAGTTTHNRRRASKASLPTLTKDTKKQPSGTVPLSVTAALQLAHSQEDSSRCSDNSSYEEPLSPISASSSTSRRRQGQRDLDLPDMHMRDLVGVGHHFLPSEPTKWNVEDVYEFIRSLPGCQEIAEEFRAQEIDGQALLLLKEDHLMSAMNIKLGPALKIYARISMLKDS

GST-Ring1B (mouse) [3] = biological target: GST-Ring1B (mouse) (UniProt Q9CQJ4); assay: as above
GST-Ring1A [4] = biological target: T4, GST-Ring1A (mouse, UniProt O35730 1-406); assay: as above
T4 construct: mature; Full-length cDNA cloned into pGEX-KG; also called GST fusion of Ring1A; not shown: glutathione S-transferase (GST) encoded by the pGEX-KG vector
T4 sequence (looked up): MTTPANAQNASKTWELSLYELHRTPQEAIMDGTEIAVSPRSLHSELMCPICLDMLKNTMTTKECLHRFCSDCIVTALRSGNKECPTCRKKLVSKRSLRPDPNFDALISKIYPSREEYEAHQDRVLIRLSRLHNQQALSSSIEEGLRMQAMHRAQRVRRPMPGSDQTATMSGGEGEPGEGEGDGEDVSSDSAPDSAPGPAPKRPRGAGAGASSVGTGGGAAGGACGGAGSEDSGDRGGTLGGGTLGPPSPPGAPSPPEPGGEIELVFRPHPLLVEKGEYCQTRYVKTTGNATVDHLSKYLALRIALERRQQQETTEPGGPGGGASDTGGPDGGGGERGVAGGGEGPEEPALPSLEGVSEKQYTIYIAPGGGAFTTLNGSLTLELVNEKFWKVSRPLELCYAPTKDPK

GST-Ring1B (mouse) [5] = biological target: GST-Ring1B (mouse) (UniProt Q9CQJ4); assay: GST pull-down, summary scheme (FIG. 5B)
GST-Ring1A [6] = biological target: T4, GST-Ring1A; assay: GST pull-down, summary scheme (FIG. 5B)

Measured: binding

Ring1A (from UniProt O35730 1-406)
binds: GST-Bmi-1 (mouse) [1] | GST-Bmi-1 (mouse) [2] | GST-Pc3 (mouse) | GST-Ph2 (mouse)

B1: Ring1B (enzyme, mouse, UniProt Q9CQJ4 2-336, looked up)
chain: SQAVQTNGTQPLSKTWELSLYELQRTPQEAITDGLEIVVSPRSLHSELMCPICLDMLKNTMTTKECLHRFCADCIITALRSGNKECPTCRKKLVSKRSLRPDPNFDALISKIYPSRDEYEAHQERVLARINKHNNQQALSHSIEEGLKIQAMNRLQRGKKQQIENGSGAEDNGDSSHCSNASTHSNQEAGPSNKRTKTSDDSGLELDNNNAAVAIDPVMDGASEIELVFRPHPTLMEKDDSAQTRYIKTSGNATVDHLSKYLAVRLALEELRSKGESNQMNLDTASEKQYTIYIATASGQFTVLNGSFSLELVSEKYWKVNKPMELYYAPTKEHK
notes: mature; Untagged protein: 35S-labelled in vitro translation product (pCITE, full-length cDNA) in the GST pull-down; baculovirus-expressed in Sf9 cells in the co-purifications; also called Ring2; Ring2/Ring1B
binds: GST-Bmi-1 (mouse) [1] | GST-Bmi-1 (mouse) [2] | GST-Pc3 (mouse) | GST-Ph2 (mouse)

B2: Pc3 (protein, mouse, UniProt Q9QXV1 1-362, looked up)
chain: MELSAVGERVFAAEALLKRRIRKGRMEYLVKWKGWSQKYSTWEPEENILDARLLAAFEEREREMELYGPKKRGPKPKTFLLKAQAKAKAKTYEFRSDSTRGIRIPYPGRSPQDLASTSRAREGLRNTGLPPPGSSTSTCRADPPRDRDRERDRGTSRVDDKPSSPGDSSKKRGPKPRKEPLDPSQRPLGEPSAGLGEYLKGRKLDETSSGTGKFPAGHSVIQLARRQDSDLVQYGVTSPSSAEASSKLAVDTFPARVIKHRAAFLEAKGQGALDPGGARVRHSSGTPASVGSLYRDMGAQGGRPSLIARIPVARILGDPEEESWSPSLTNLEKVVVTDVTSNFLTVTIKESNTDQGFFKEKR
binds: GST-Bmi-1 (mouse) [2] | GST-Ring1B (mouse) [3] | GST-Ring1A [4]

B3: Bmi-1 (other, mouse, UniProt P25916 1-324, looked up)
chain: MHRTTRIKITELNPHLMCVLCGGYFIDATTIIECLHSFCKTCIVRYLETSKYCPICDVQVHKTRPLLNIRSDKTLQDIVYKLVPGLFKNEMKRRRDFYAAHPSADAANGSNEDRGEVADEEKRIITDDEIISLSIEFFDQSRLDRKVNKEKPKEEVNDKRYLRCPAAMTVMHLRKFLRSKMDIPNTFQIDVMYEEEPLKDYYTLMDIAYIYTWRRNGPLPLKYRVRPTCKRMKMSHQRDGLTNAGELESDSGSDKANSPAGGVPSTSSCLPSPSTPVQSPHPQFPHISSTMNGTSNSPSANHQSSFASRPRKSSLNGSSATSSG
notes: mature; Untagged protein: 35S-labelled in vitro translation product in the GST pull-down; baculovirus-expressed in Sf9 cells in the two-component complex with FLAG-Ring1B
not listed: GST-Bmi-1 (mouse) [1] | GST-Bmi-1 (mouse) [2]
binds: all other assays above

B4: Ph2 (protein, mouse, UniProt Q9QWH1 1-850, looked up)
chain: MENELPVPHTSNRASVTTNTSGTNSSSGCISSSGGGGGSGGRPTAPQISVYSGIPDRQTVQVIQQALHRQPSTAAQYLQQMYAAQQQHLMLQTAALQQQHLSSAQLQSLAAVQQASLVANRQGSTPGSSVSSQAPAQSSSLNLAASPAAAQLINRAQSVNSAAASGLAQQAVLLGNTSSPALTASQAQMYLRAQMLIFTPTATVATVQPELCTGSPARPPTPAQVQNLTLRTQQTPAAAASGPPPTQPVLPSLALKPTPSSSQPLPAPPQGRTMAQGSPAGAKPSGTDNAPETLKAGDGNCNMEGRPGPGRAVPAVATHPLIAPAYAHLQSHQLLPQPPAKHPQPQFVAQQQPQPPRPAPQVQSQPQLASVSPSLALQSSPEDHALPLGSVTQALPLQCSTTHVHKPGNSQQCHLPTLDTGSQNGHPEGGSHPPQRRFQHTSAVILQVQPASPVTPQQCAPDDWKEVVPAEKSVPVARPGPSPHQQAIIPAIPGGLPGPKSPNIQQCPAHETGQGIVHALTDLSSPGMTSGNGNSASSIAGTAPQNGENKPPQAIVKPQILTHVIEGFVIQEGAEPFPVGRSSLLVGNLKKKYAQGFLPEKPPQQDHTTTTDSEMEEPYLQESKEEGTPLKLKCELCGRVDFAYKFKRSKRFCSMACAKRYNVGCTKRVGLFHSDRSKLQKAGTTTHNRRRASKASLPTLTKDTKKQPSGTVPLSVTAALQLAHSQEDSSRCSDNSSYEEPLSPISASSSTSRRRQGQRDLDLPDMHMRDLVGVGHHFLPSEPTKWNVEDVYEFIRSLPGCQEIAEEFRAQEIDGQALLLLKEDHLMSAMNIKLGPALKIYARISMLKDS
binds: GST-Bmi-1 (mouse) [2] | GST-Ring1B (mouse) [3] | GST-Ring1A [4]
